# Reference: the supplement of paper PMC12889115
# Some of the results follow. These are raw signals, not scaled to a control.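 First-pass screen: polymyxin B was added at a level that permeabilizes the Salmonella outer membrane while sparing the inner membrane. DMSO wells, with and without polymyxin B, defined maximum growth. Because plates differed from one another, each plate's data were ranked separately and the compounds with the lowest OD600 were carried forward as hits.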
# Test system: Salmonella enterica serovar Typhimurium SL1344
# Experiment: bacterial growth OD600 after 18 h with compound and polymyxin B; higher = more bacterial growth (less inhibition)
# Details: 50 µM, Mueller-Hinton broth
Structure (SMILES),bacterial growth OD600 (polymyxin B 0.75 µg/mL),bacterial growth OD600 (polymyxin B 1 µg/mL)
O=C(CCCc1ccccc1)Nc1cccc(N2CCC(NCc3cccnc3)CC2)c1,0.781,–
COc1ccc(OCc2cc(C(=O)NCc3cccc(F)c3)no2)c(Cl)c1,–,0.739
CCCCN(C)C(=O)c1cn(Cc2ccccc2Cl)nn1,–,0.838
CCCOC1CCCN(C(=O)c2cn(Cc3ccccc3C)nn2)C1 (stereo not given),–,0.741
CC(C)Cc1cc(CN2CCC(CO)(CCOc3ccccc3)CC2)n[nH]1,0.741,–
CSc1ncccc1C(=O)NC1CCCN(CCCc2ccccc2)C1 (stereo not given),–,1.17
O=C1O[C@@H]2CN(Cc3ccc(CO)o3)C[C@@H]2N1CCc1ccc(F)cc1,0.816,–
COc1ccc(C2(C(=O)NC(C)c3cnn(-c4ccccn4)c3C)CCCC2)cc1 (stereo not given),–,0.879
COc1ccc(CCCNC(=O)c2ccc(N3CCCCO3)nc2)cc1,–,0.923
Cc1ncc(CN2CCC(C3CCN(CC(C)C)CC3)C2)n1C (stereo not given),0.777,–
Cc1cccc(NC(=O)CCC2CCN(Cc3cccc(C)n3)CC2)c1,0.921,–
CN(Cc1cccnc1)c1ccc(-c2nc(COc3ccccc3)no2)cn1,–,0.778
CCOC(=O)CC1CCCCN1C(=O)c1cn(C2CCCCC2)nn1 (stereo not given),–,0.747
Cc1c(CC(=O)N(C)C(C)C)c2c(n1Cc1ccccc1F)CCCC2=O,–,0.026
CN(C(=O)CCc1nnc(Cc2ccc(-c3ccccc3)cc2)o1)C1CCOCC1,–,0.762
O=C(NCc1cccnc1)c1ccc(N2CCC(NCC3(N4CCOCC4)CCCCC3)CC2)cc1,0.827,–
Clc1ccc(CN2CCC(C3CCN(Cc4cccnc4)CC3)C2)cc1 (stereo not given),0.787,–
CN(CCc1ccccc1)C(=O)c1cn(Cc2ccccc2Cl)nn1,–,0.807
CN(CCC1CCCCO1)C(=O)CC1(c2cccc(C(F)(F)F)c2)CC(=O)N(C2CC2)C1=O (stereo not given),0.808,–
COc1cccc(CNC(=O)CCC2CCCN(C(=O)CSc3ccccc3)C2)c1 (stereo not given),–,0.717
CC(=O)NCC1CCCN(Cc2cn(C)nc2-c2ccc(C3CCCCC3)cc2)C1 (stereo not given),–,0.894
O=C(N[C@H]1CCCCNC1=O)c1ccc(N2CCC(NCC3(N4CCOCC4)CCCC3)CC2)cc1,0.899,–
CCN(CC)C(=O)C1CCCN(C(=O)CC2(c3ccccc3Cl)CC(=O)N(CCOC)C2=O)C1 (stereo not given),0.841,–
CN(Cc1ccc(F)cc1)CC1(O)CCCN(CC(C)(C)C)C1=O (stereo not given),–,0.954
CCN1CCN(C2(C(=O)NCC(C)(C)CN(C)C)Cc3ccccc3C2)CC1,0.976,–
O=C(CCCn1cncn1)N1CCCC(CCc2ccccc2C(F)(F)F)C1 (stereo not given),–,0.884
Cc1cccnc1CC(C)NC(=O)c1coc(COc2cccc(F)c2)n1 (stereo not given),–,0.859
Cc1ccc(C(=O)N2CCC3(CCCN(Cc4ccccc4F)C3)C2)c(O)n1 (stereo not given),–,1.05
CC(C)NCC1(O)CCCN(Cc2ccc(F)c(F)c2)C1=O (stereo not given),–,1.01
COc1cccc(CCC2CCCN(C(=O)C3=NN(C)C(=O)CC3)C2)c1 (stereo not given),0.817,–

# A different layout for 2 compounds above:
Structure (SMILES)	bacterial growth OD600 (polymyxin B 0.75 µg/mL)	bacterial growth OD600 (polymyxin B 1 µg/mL)
Clc1ccc(CN2CCC(C3CCN(Cc4cccnc4)CC3)C2)cc1 (stereo not given)	0.787	–
CN(CCc1ccccc1)C(=O)c1cn(Cc2ccccc2Cl)nn1	–	0.807
